Patent US9592218B2, “Reverse micelle system comprising metal ions and use thereof” (MEDESIS PHARMA, priority 2010, dated 2017)
At least one compound was matched to its structure with a doubt left.

Test system: mice inoculated with ME7 prion
Assay type: in vivo, C57b1/6 mice
Conditions: 16 mg/kg oral gavage, from 90 days after inoculation until death

`[Li]` [lithium in solution] was tested, and the “survival of prion infected mice compared to empty reverse micelles” value was “increase survival”.
